Taken from: PubChem BioAssay AID1508597 (Cure First, 2020)
Shown is an unselected part of the about 2,100 reagents, in one setting of the screen. 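Calls flag viability under 80% in either arm, not effects specific to rucaparib; the reference for percent is not stated.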 The record does not give: the 100% reference.

Aim: 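Knock-downs altering ovarian cancer cell survival with or without PARP inhibitor rucaparib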 (primary screen)
Cells: human ovarian carcinoma lines grown from tumours: OCI-P5x (papillary serous) and OCI-C5x (clear cell)
Reagent: siRNA pool against human genes, 1.25 pmol siRNA per well
Time to read-out: 72 h or 96 h, depending on the cell culture
Treatment: rucaparib 20 µM (about IC30) or vehicle, present until read-out
Rucaparib or vehicle: Rucaparib
Cell line: OCI-P5x (serous)
Read-out: 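ATP luminescence measured at 72 or 96 h according to the culture, then normalised and expressed as percent viability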
Direction: viability, normalised: higher = more viable cells remaining
Call rule: 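Active when normalised viability falls below 80 percent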
Calls: active = viability under 80%; inactive = viability 80% or more

For ING1 (GeneID 3621), technical replicate 1 the deposit lists viability, normalised (%) = 71.9; active.
ING1 (GeneID 3621), technical replicate 2 gave viability, normalised (%) = 68.6; active.
With ING1 (GeneID 3621), technical replicate 3, the entry reads viability, normalised (%) = 67; active.
AMHR2 (GeneID 269), technical replicate 1 scored viability, normalised (%) = 95.9; inactive.
AMHR2 (GeneID 269), technical replicate 2 scored viability, normalised (%) = 101; inactive.
With AMHR2 (GeneID 269), technical replicate 3, the values are viability, normalised (%) = 96.7; inactive.
ROCK1 (GeneID 6093), technical replicate 1 showed viability, normalised (%) = 99.1; inactive.
With ROCK1 (GeneID 6093), technical replicate 2, the entry reads viability, normalised (%) = 102; inactive.
ROCK1 (GeneID 6093), technical replicate 3 gave viability, normalised (%) = 104; inactive.
PLK3 (GeneID 1263), technical replicate 1 scored viability, normalised (%) = 117; inactive.
PLK3 (GeneID 1263), technical replicate 2 scored viability, normalised (%) = 130; inactive.
For PLK3 (GeneID 1263), technical replicate 3 the deposit lists viability, normalised (%) = 99.7; inactive.
With PARP12 (GeneID 64761), technical replicate 1, the values are viability, normalised (%) = 41.4; active.
With PARP12 (GeneID 64761), technical replicate 2, the values are viability, normalised (%) = 52.6; active.
For PARP12 (GeneID 64761), technical replicate 3, the values are viability, normalised (%) = 49.9; active.

Reformatted: results already given.
{"target gene":"ROCK1 (GeneID 6093)","technical replicate":"3","viability, normalised (%)":104,"outcome":"inactive"}
{"target gene":"PLK3 (GeneID 1263)","technical replicate":"1","viability, normalised (%)":117,"outcome":"inactive"}
{"target gene":"PLK3 (GeneID 1263)","technical replicate":"2","viability, normalised (%)":130,"outcome":"inactive"}
{"target gene":"PLK3 (GeneID 1263)","technical replicate":"3","viability, normalised (%)":99.7,"outcome":"inactive"}

The listing continues.
CDH5 (GeneID 1003), technical replicate 1 gave viability, normalised (%) = 66; active.
CDH5 (GeneID 1003), technical replicate 2 scored viability, normalised (%) = 77.6; active.
CDH5 (GeneID 1003), technical replicate 3 scored viability, normalised (%) = 77.7; active.
For PDE8A (GeneID 5151), technical replicate 1 the deposit lists viability, normalised (%) = 51.8; active.
For PDE8A (GeneID 5151), technical replicate 2, the values are viability, normalised (%) = 54.7; active.
PDE8A (GeneID 5151), technical replicate 3 gave viability, normalised (%) = 56; active.
For TDRD3 (GeneID 81550), technical replicate 1, the values are viability, normalised (%) = 61.9; active.
With TDRD3 (GeneID 81550), technical replicate 2, the values are viability, normalised (%) = 59.5; active.
TDRD3 (GeneID 81550), technical replicate 3 gave viability, normalised (%) = 49.8; active.
For ETF1 (GeneID 2107), technical replicate 1 the deposit lists viability, normalised (%) = 64.9; active.
With ETF1 (GeneID 2107), technical replicate 2, the values are viability, normalised (%) = 48.8; active.
With ETF1 (GeneID 2107), technical replicate 3, the values are viability, normalised (%) = 47.4; active.
With EDF1 (GeneID 8721), technical replicate 1, the entry reads viability, normalised (%) = 54; active.
EDF1 (GeneID 8721), technical replicate 2 scored viability, normalised (%) = 48.6; active.
With EDF1 (GeneID 8721), technical replicate 3, the values are viability, normalised (%) = 66.4; active.
For CAMK1D (GeneID 57118), technical replicate 1 the deposit lists viability, normalised (%) = 118; inactive.
CAMK1D (GeneID 57118), technical replicate 2 scored viability, normalised (%) = 109; inactive.
CAMK1D (GeneID 57118), technical replicate 3 scored viability, normalised (%) = 75.2; active.
